Test results from patent US20060134119A1, “Drugs containing galectin 9” (priority 2003, published 2006).
No constants are given. Whether binding was seen depends on the method and setting. For some assays here: Binding seen in cells or lysates may run through a third protein. Some entries that bind do so weakly or less than the wild type.

Chains of the proteins cited; added tags and fusions are not shown. Lines headed by an entry give the natural chain unless they say otherwise; changes in a name come on top. A line that says so, or that is headed by a name, gives the form on record, which may keep a tag or linker. Residues count along the entry.
UniProt O00182, residues 210-355: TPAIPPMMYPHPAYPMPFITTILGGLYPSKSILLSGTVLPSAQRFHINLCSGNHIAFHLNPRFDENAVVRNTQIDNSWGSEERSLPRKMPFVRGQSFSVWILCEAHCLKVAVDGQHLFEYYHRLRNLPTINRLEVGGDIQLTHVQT
UniProt O95573: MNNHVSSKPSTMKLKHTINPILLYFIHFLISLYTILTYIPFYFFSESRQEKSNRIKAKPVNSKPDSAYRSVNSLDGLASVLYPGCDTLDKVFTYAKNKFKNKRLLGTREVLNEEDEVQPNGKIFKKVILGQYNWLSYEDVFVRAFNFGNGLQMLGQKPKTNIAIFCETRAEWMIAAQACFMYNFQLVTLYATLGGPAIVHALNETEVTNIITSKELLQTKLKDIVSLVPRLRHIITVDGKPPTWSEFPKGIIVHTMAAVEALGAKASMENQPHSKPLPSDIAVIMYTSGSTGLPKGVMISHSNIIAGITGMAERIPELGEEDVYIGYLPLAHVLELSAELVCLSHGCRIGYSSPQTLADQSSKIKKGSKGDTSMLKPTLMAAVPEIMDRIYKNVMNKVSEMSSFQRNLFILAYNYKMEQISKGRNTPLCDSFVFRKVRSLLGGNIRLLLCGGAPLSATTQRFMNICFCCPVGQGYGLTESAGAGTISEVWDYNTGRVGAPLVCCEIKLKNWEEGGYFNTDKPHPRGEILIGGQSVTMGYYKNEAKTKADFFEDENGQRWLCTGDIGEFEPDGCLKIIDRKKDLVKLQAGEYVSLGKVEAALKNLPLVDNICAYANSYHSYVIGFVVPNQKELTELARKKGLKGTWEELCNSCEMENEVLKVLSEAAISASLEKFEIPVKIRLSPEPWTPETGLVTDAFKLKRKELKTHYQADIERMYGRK
UniProt P11021, residues 19-654: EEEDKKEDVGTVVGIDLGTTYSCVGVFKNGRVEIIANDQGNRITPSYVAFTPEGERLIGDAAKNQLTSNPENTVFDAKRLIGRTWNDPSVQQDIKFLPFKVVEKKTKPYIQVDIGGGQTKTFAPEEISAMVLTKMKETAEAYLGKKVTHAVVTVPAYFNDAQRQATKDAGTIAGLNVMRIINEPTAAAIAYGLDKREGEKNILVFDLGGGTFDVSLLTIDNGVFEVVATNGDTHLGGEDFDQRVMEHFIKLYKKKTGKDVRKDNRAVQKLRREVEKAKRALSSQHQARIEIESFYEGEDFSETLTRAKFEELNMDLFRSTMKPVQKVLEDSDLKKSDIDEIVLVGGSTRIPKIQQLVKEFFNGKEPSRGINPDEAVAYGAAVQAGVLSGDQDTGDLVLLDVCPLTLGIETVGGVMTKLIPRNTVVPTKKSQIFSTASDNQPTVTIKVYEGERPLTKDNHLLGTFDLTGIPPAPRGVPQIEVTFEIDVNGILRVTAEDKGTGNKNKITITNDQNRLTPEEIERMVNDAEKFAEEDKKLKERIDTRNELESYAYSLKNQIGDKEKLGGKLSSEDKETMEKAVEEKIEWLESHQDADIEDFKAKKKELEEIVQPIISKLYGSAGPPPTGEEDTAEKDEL
heat shock 70 kDa protein 8 isoform 2 (P11142, form named): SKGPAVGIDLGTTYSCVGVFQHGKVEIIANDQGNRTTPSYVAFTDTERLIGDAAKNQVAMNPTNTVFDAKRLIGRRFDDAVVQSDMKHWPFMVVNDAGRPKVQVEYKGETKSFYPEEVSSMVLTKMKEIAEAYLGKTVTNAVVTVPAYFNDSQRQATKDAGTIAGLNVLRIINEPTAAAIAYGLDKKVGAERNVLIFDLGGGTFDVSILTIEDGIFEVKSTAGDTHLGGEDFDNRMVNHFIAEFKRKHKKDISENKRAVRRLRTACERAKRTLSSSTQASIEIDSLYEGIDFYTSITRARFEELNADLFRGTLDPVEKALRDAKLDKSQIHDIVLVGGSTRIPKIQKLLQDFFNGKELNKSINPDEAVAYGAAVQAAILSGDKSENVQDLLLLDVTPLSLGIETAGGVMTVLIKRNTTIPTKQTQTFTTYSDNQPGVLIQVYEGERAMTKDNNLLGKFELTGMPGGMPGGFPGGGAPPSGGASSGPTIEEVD
UniProt P38646, residues 47-679: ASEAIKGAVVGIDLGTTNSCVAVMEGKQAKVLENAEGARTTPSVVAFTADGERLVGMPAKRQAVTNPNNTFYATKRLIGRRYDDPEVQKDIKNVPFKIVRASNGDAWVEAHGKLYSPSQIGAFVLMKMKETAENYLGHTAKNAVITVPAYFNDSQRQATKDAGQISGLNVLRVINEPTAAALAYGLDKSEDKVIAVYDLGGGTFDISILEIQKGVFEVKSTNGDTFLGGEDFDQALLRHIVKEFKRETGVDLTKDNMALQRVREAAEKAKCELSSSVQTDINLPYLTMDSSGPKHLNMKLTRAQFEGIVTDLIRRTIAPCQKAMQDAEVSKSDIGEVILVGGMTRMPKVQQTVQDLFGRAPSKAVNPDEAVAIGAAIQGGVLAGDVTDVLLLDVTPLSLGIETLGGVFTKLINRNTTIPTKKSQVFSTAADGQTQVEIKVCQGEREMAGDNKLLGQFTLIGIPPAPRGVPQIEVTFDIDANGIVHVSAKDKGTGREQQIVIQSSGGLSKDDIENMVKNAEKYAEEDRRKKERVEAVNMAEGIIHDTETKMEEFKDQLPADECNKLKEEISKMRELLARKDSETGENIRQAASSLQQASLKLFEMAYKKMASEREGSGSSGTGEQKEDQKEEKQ
UniProt P28331, residues 24-727: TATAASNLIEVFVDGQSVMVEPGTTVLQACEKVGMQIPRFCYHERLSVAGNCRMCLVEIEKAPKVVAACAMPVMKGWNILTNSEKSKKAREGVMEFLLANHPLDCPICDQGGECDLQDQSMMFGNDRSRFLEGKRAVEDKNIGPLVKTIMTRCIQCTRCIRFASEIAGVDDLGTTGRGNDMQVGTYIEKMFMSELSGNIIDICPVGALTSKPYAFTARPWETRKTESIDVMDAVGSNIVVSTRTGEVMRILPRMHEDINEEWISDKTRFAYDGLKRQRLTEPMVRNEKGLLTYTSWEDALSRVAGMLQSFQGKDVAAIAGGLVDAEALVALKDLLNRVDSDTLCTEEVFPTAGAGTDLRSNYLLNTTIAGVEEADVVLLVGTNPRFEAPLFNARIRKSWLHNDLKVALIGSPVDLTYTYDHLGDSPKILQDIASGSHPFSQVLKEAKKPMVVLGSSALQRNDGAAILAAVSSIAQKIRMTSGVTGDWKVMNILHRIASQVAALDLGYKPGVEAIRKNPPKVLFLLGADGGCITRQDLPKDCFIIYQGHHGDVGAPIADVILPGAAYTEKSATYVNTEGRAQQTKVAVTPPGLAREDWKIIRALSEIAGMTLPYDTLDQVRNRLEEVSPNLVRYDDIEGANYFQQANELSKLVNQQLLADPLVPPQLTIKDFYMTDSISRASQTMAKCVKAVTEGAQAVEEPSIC
UniProt Q07021, residues 74-282: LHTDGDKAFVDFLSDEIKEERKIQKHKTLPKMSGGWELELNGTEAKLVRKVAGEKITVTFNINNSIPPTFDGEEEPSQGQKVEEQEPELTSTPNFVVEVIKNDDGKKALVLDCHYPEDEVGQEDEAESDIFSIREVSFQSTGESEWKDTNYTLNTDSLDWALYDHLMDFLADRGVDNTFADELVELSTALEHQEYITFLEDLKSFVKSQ
UniProt P21796, residues 2-283: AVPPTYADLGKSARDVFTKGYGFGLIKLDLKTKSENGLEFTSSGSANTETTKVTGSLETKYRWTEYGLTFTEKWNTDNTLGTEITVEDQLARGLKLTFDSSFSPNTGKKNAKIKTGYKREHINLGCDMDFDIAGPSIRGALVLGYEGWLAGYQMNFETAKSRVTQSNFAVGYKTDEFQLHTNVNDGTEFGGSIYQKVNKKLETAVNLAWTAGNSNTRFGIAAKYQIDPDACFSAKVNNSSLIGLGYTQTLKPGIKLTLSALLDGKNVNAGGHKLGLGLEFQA
UniProt P08238, residues 2-724: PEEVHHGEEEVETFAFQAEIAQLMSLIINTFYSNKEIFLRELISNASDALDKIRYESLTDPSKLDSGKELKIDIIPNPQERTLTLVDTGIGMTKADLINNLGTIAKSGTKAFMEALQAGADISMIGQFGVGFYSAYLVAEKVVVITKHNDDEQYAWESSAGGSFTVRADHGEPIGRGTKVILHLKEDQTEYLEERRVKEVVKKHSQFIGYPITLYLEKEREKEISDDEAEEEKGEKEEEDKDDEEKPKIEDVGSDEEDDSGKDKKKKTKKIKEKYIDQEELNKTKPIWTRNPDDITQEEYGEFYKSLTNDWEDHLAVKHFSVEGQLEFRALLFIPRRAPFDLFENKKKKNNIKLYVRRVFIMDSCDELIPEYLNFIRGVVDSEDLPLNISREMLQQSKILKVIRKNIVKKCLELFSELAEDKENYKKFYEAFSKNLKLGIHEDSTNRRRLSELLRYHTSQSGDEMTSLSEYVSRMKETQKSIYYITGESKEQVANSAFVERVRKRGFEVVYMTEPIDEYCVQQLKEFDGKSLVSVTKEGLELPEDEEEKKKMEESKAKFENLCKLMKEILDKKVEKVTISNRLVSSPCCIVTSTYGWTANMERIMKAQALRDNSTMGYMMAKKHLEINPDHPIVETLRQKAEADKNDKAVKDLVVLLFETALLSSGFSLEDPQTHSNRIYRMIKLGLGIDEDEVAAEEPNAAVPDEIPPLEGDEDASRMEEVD
stromal cell derived factor receptor 1 isoform a (Q9Y639, form named): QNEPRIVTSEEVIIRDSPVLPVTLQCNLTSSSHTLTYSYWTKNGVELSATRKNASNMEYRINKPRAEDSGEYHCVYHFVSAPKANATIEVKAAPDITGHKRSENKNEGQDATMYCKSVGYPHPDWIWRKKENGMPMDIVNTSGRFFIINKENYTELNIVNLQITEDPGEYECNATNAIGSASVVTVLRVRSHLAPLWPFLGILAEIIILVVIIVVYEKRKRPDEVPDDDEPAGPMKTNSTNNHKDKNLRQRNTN
UniProt P10809, residues 27-573: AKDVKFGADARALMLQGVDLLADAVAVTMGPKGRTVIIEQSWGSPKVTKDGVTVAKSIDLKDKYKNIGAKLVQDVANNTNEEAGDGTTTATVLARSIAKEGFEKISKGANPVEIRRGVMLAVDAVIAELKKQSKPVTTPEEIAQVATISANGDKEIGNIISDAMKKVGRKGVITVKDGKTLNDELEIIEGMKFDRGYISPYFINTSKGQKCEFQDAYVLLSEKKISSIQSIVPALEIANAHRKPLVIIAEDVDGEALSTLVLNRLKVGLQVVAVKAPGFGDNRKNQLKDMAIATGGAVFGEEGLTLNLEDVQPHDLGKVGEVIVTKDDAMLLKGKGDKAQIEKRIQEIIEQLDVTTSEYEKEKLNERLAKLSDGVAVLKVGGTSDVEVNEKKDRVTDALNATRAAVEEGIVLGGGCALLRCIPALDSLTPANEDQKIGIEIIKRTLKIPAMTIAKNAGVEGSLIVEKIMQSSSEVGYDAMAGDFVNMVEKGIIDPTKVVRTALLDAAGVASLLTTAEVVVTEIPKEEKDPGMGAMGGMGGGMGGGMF
UniProt O43865, residues 2-530: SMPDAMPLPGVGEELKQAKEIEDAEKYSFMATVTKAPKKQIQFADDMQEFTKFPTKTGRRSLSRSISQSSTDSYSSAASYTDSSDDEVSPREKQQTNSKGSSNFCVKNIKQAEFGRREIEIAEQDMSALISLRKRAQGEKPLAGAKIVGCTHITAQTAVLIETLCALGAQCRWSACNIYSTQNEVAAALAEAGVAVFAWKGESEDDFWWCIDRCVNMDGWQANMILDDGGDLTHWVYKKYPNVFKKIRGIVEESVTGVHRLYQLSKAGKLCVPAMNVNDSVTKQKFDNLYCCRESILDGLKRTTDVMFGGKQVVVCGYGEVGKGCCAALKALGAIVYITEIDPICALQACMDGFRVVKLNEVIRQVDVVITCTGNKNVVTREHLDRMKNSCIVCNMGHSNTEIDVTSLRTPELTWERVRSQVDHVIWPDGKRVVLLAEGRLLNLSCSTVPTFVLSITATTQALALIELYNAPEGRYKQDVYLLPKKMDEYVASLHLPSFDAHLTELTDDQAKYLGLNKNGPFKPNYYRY
UniProt O75396, residues 2-215: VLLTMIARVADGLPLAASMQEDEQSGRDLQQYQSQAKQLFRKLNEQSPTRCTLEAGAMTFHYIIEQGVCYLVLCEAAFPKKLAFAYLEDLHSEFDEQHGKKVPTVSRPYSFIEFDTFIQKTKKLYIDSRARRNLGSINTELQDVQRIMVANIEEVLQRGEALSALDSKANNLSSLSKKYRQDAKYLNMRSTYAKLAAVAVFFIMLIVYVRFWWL
UniProt O75947, residues 2-161: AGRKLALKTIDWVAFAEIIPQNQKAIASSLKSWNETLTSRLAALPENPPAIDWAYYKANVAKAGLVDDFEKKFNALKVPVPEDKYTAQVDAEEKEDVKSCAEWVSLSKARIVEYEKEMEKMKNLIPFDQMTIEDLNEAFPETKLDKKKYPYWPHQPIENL
Hnrnp A1 (P09651, form named): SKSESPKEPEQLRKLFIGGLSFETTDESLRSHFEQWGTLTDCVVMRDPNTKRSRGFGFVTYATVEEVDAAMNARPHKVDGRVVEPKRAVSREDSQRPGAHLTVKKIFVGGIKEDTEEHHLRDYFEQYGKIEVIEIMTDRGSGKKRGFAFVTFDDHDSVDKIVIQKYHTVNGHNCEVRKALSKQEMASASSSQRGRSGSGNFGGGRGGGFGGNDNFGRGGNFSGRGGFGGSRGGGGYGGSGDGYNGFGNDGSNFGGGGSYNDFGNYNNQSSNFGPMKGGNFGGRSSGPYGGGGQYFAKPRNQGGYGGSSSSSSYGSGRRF

Target: GST gal9CT (GST-fused galectin-9 C-terminal region, immobilised on a column) (human) (UniProt O00182)
Experiment: GST-gal9CT affinity column, MOLT-4 detergent extract after GST pre-column, 200 mM lactose elution; SDS-PAGE Band 2, LC-MS/MS (Mascot)

Row | binding | Molecule
1 | binds | fatty-acid-Coenzyme A ligase, long-chain 3 (from UniProt O95573 1-720)
2 | binds | heat shock 70 kDa protein 5 (glucose-regulated protein, 78 kDa) (from UniProt P11021 19-654)

The next lines start with the molecule.

Row | Molecule | binding
3 | heat shock 70 kDa protein 8 isoform 2 (from UniProt P11142 2-493) | binds
4 | heat shock 70 kDa protein 9B precursor (from UniProt P38646 47-679) | binds
5 | NADH dehydrogenase (ubiquinone) Fe-S protein 1, 75 kDa (NADH-coenzyme Q reductase) (from UniProt P28331 24-727) | binds

Target: GST gal9CT (GST-fused galectin-9 C-terminal region, immobilised on a column) (human) (UniProt O00182)
Experiment: GST-gal9CT affinity column, MOLT-4 detergent extract after GST pre-column, 200 mM lactose elution; SDS-PAGE Band 8, LC-MS/MS (Mascot)

Row | binding | Molecule
6 | binds | hyaluronan-binding protein precursor (from UniProt Q07021 74-282)
7 | binds | 3-hydroxybutyrate dehydrogenase precursor (enzyme, human, UniProt Q02338 47-343, looked up) ASAAEPVGSKAVLVTGCDSGFGFSLAKHLHSKGFLVFAGCLMKDKGHDGVKELDSLNSDRLRTVQLNVCSSEEVEKVVEIVRSSLKDPEKGMWGLVNNAGISTFGEVEFTSLETYKQVAEVNLWGTVRMTKSFLPLIRRAKGRVVNISSMLGRMANPARSPYCITKFGVEAFSDCLRYEMYPLGVKVSVVEPGNFIAATSLYSPESIQAIAKKMWEELPEVVRKDYGKKYFDEKIAKMETYCSSGSTDTSPVIDAVTHALTATTPYTRYHPMDYYWWLRMQIMTHLPGAISDMIYIR

More lines, now with the values behind:

Row | Molecule | binding
8 | voltage-dependent anion channel 1 (from UniProt P21796 2-283) | binds
9 | sideroflexin 1 (protein, human, UniProt Q9H9B4 2-322, looked up) SGELPPNINIKEPRWDQSTFIGRANHFFTVTDPRNILLTNEQLESARKIVHDYRQGIVPPGLTENELWRAKYIYDSAFHPDTGEKMILIGRMSAQVPMNMTITGCMMTFYRTTPAVLFWQWINQSFNAVVNYTNRSGDAPLTVNELGTAYVSATTGAVATALGLNALTKHVSPLIGRFVPFAAVAAANCINIPLMRQRELKVGIPVTDENGNRLGESANAAKQAITQVVVSRILMAAPGMAIPPFIMNTLEKKAFLKRFPWMSAPIQVGLVGFCLVFATPLCCALFPQKSSMSVTSLEAELQAKIQESHPELRRVYFNKGL | binds
10 | phosphate carrier precursor isoform 1b (protein, human, UniProt Q00325-2 50-361, looked up) AVEEYSCEFGSAKYYALCGFGGVLSCGLTHTAVVPLDLVKCRMQVDPQKYKGIFNGFSVTLKEDGVRGLAKGWAPTFLGYSMQGLCKFGFYEVFKVLYSNMLGEENTYLWRTSLYLAASASAEFFADIALAPMEAAKVRIQTQPGYANTLRDAAPKMYKEEGLKAFYKGVAPLWMRQIPYTMMKFACFERTVEALYKFVVPKPRSECSKPEQLVVTFVAGYIAGVFCAIVSHPADSVVSVLNKEKGSSASLVLKRLGFKGVWKGLFARIIMIGTLTALQWFIYDSVKVYFRLPRPPPPEMPESLKKKLGLTQ | binds
11 | solute carrier family 25 (mitochondrial carrier; oxoglutarate carrier), member 11 (protein, human, UniProt Q02978 2-314, looked up) AATASAGAGGIDGKPRTSPKSVKFLFGGLAGMGATVFVQPLDLVKNRMQLSGEGAKTREYKTSFHALTSILKAEGLRGIYTGLSAGLLRQATYTTTRLGIYTVLFERLTGADGTPPGFLLKAVIGMTAGATGAFVGTPAEVALIRMTADGRLPADQRRGYKNVFNALIRITREEGVLTLWRGCIPTMARAVVVNAAQLASYSQSKQFLLDSGYFSDNILCHFCASMISGLVTTAASMPVDIAKTRIQNMRMIDGKPEYKNGLDVLFKVVRYEGFFSLWKGFTPYYARLGPHTVLTFIFLEQMNKAYKRLFLSG | binds
12 | androgen-regulated short-chain dehydrogenase/reductase 1 (enzyme, human, UniProt Q8TC12 1-318, looked up) MVELMFPLLLLLLPFLLYMAAPQIRKMLSSGVCTSTVQLPGKVVVVTGANTGIGKETAKELAQRGARVYLACRDVEKGELVAKEIQTTTGNQQVLVRKLDLSDTKSIRAFAKGFLAEEKHLHVLINNAGVMMCPYSKTADGFEMHIGVNHLGHFLLTHLLLEKLKESAPSRIVNVSSLAHHLGRIHFHNLQGEKFYNAGLAYCHSKLANILFTQELARRLKGSGVTTYSVHPGTVQSELVRHSSFMRWMWWLFSFFIKTPQQGAQTSLHCALTEGLEILSGNHFSDCHVAWVSAQARNETIARRLWDVSCDLLGLPID | binds

Target: GST gal9CT (GST-fused galectin-9 C-terminal region, immobilised on a column) (human) (UniProt O00182)
Experiment: GST-gal9CT affinity column, MOLT-4 detergent extract after GST pre-column, 200 mM lactose elution; SDS-PAGE Band 1, LC-MS/MS (Mascot)

Row | binding | Molecule
13 | binds | 4F2 heavy chain antigen (from UniProt P08195 2-529)
14 | binds | heat shock 90 kDa protein 1, beta (from UniProt P08238 2-724)
15 | binds | stromal cell derived factor receptor 1 isoform a (from UniProt Q9Y639 29-282)

Target: GST gal9CT (GST-fused galectin-9 C-terminal region, immobilised on a column) (human) (UniProt O00182)
Experiment: GST-gal9CT affinity column, MOLT-4 detergent extract after GST pre-column, 200 mM lactose elution; SDS-PAGE Band 3, LC-MS/MS (Mascot)

Row | binding | Molecule
16 | binds | 60 kDa heat shock protein, mitochondrial precursor (from UniProt P10809 27-573)
17 | binds | S-adenosylhomocysteine hydrolase-like 1 (from UniProt O43865 2-530)

Target: GST gal9CT (GST-fused galectin-9 C-terminal region, immobilised on a column) (human) (UniProt O00182)
Experiment: GST-gal9CT affinity column, MOLT-4 detergent extract after GST pre-column, 200 mM lactose elution; SDS-PAGE Band 9, LC-MS/MS (Mascot)

Row | binding | Molecule
18 | binds | vesicle trafficking protein sec22b (from UniProt O75396 2-215)
19 | binds | ATP synthase, H^+ transporting, mitochondrial F0 complex, subunit d (from UniProt O75947 2-161) (enzyme)
20 | binds | NADH dehydrogenase (ubiquinone) Fe-S protein 8, 23 kDa (NADH-coenzyme Q reductase) (from UniProt O00217 35-210)
21 | binds | ATP synthase, H^+ transporting, mitochondrial F0 complex, subunit b, isoform 1 (enzyme, human, UniProt P24539 43-256, looked up) PVPPLPEYGGKVRYGLIPEEFFQFLYPKTGVTGPYVLGTGLILYALSKEIYVISAETFTALSVLGVMVYGIKKYGPFVADFADKLNEQKLAQLEEAKQASIQHIQNAIDTEKSQQALVQKRHYLFDVQRNNIAMALEVTYRERLYRVYKEVKNRLDYHISVQNMMRRKEQEHMINWVEKHVVQSISTQQEKETIAKCIADLKLLAKKAQAQPVM
22 | binds | ATP synthase, H^+ transporting, mitochondrial F1 complex, O subunit (enzyme, human, UniProt P48047 24-213, looked up) FAKLVRPPVQVYGIEGRYATALYSAASKQNKLEQVEKELLRVAQILKEPKVAASVLNPYVKRSIKVKSLNDITAKERFSPLTTNLINLLAENGRLSNTQGVVSAFSTMMSVHRGEVPCTVTSASPLEEATLSELKTVLKSFLSQGQVLKLEAKTDPSILGGMIVRIGEKYVDMSVKTKIQKLGRAMREIV

Target: GST gal9CT (GST-fused galectin-9 C-terminal region, immobilised on a column) (human) (UniProt O00182)
Experiment: GST-gal9CT affinity column, MOLT-4 detergent extract after GST pre-column, 200 mM lactose elution; SDS-PAGE Band 7, LC-MS/MS (Mascot)

Row | binding | Molecule
23 | binds | Hnrnp A1 (from UniProt P09651 2-320)
24 | binds | metaxin 1 (protein, human, UniProt Q13505-3 1-317, looked up) MAAPMELFCWSGGWGLPSVDLDSLAVLTYARFTGAPLKVHKISNPWQSPSGTLPALRTSHGEVISVPHKIITHLRKEKYNADYDLSARQGADTLAFMSLLEEKLLPVLVHTFWIDTKNYVEVTRKWYAEAMPFPLNFFLPGRMQRQYMERLQLLTGEHRPEDEEELEKELYREARECLTLLSQRLGSQKFFFGDAPASLDAFVFSYLALLLQAKLPSGKLQVHLRGLHNLCAYCTHILSLYFPWDGAEVPPQRQTPAGPETEEEPYRRRNQILSVLAGLAAMVGYALLSGIVSIQRATPARAPGTRTLGMAEEDEEE
25 | binds | sideroflexin 1 (protein, human, UniProt Q9H9B4 2-322, looked up) SGELPPNINIKEPRWDQSTFIGRANHFFTVTDPRNILLTNEQLESARKIVHDYRQGIVPPGLTENELWRAKYIYDSAFHPDTGEKMILIGRMSAQVPMNMTITGCMMTFYRTTPAVLFWQWINQSFNAVVNYTNRSGDAPLTVNELGTAYVSATTGAVATALGLNALTKHVSPLIGRFVPFAAVAAANCINIPLMRQRELKVGIPVTDENGNRLGESANAAKQAITQVVVSRILMAAPGMAIPPFIMNTLEKKAFLKRFPWMSAPIQVGLVGFCLVFATPLCCALFPQKSSMSVTSLEAELQAKIQESHPELRRVYFNKGL

Target: GST gal9CT (GST-fused galectin-9 C-terminal region, immobilised on a column) (human) (UniProt O00182)
Experiment: GST-gal9CT affinity column, MOLT-4 detergent extract after GST pre-column, 200 mM lactose elution; SDS-PAGE band C, internal sequence analysis

Row | binding | Molecule
26 | binds | Sodium/potassium-transporting ATPase beta-3 chain (from UniProt P54709 1-279)
27 | binds | ATP synthase, beta chain (from UniProt P06576 48-529) (enzyme)

Target: GST gal9CT (GST-fused galectin-9 C-terminal region, immobilised on a column) (human) (UniProt O00182)
Experiment: GST-gal9CT affinity column, MOLT-4 detergent extract after GST pre-column, 200 mM lactose elution; SDS-PAGE Band 5, LC-MS/MS (Mascot)

Row | binding | Molecule
28 | binds | farnesyl-diphosphate farnesyltransferase 1 (enzyme, human, UniProt P37268 1-417, looked up) MEFVKCLGHPEEFYNLVRFRIGGKRKVMPKMDQDSLSSSLKTCYKYLNQTSRSFAAVIQALDGEMRNAVCIFYLVLRALDTLEDDMTISVEKKVPLLHNFHSFLYQPDWRFMESKEKDRQVLEDFPTISLEFRNLAEKYQTVIADICRRMGIGMAEFLDKHVTSEQEWDKYCHYVAGLVGIGLSRLFSASEFEDPLVGEDTERANSMGLFLQKTNIIRDYLEDQQGGREFWPQEVWSRYVKKLGDFAKPENIDLAVQCLNELITNALHHIPDVITYLSRLRNQSVFNFCAIPQVMAIATLAACYNNQQVFKGAVKIRKGQAVTLMMDATNMPAVKAIIYQYMEEIYHRIPDSDPSSSKTRQIISTIRTQNLPNCQLISRSHYSPIYLSFVMLLAALSWQYLTTLSQVTEDYVQTGEH
29 | binds | dolichyl-diphosphooligosaccharide-protein glycosyltransferase (enzyme, human, UniProt P39656 43-456, looked up) SGPRTLVLLDNLNVRETHSLFFRSLKDRGFELTFKTADDPSLSLIKYGEFLYDNLIIFSPSVEDFGGNINVETISAFIDGGGSVLVAASSDIGDPLRELGSECGIEFDEEKTAVIDHHNYDISDLGQHTLIVADTENLLKAPTIVGKSSLNPILFRGVGMVADPDNPLVLDILTGSSTSYSFFPDKPITQYPHAVGKNTLLIAGLQARNNARVIFSGSLDFFSDSFFNSAVQKAAPGSQRYSQTGNYELAVALSRWVFKEEGVLRVGPVSHHRVGETAPPNAYTVTDLVEYSIVIQQLSNGKWVPFDGDDIQLEFVRIDPFVRTFLKKKGGKYSVQFKLPDVYGVFQFKVDYNRLGYTHLYSSTQVSVRPLQHTQYERFIPSAYPYYASAFSMMLGLFIFSIVFLHMKEKEKSD
